In PubChem BioAssay AID504834 (National Center for Advancing Translational Sciences (NCATS), 2011):
Hit rate of the full screen: of about 320,000 compounds, about 22,000 (6.9%) were called active. This list was built around the results that the source calls inconclusive (neither active nor inactive); the mix of calls is not that of the screen. Calls come from the whole dose curve; as a rule, active = well fitted inhibition curve with a large enough effect; inconclusive = small, poorly fitted or top-dose-only effect, or another doubt; inactive = no such curve, though single readings can be large or run the other way. A potency beside an inconclusive call is a rough fit, not a confirmed value.

test: Primary qHTS for delayed death inhibitors of the malarial parasite plastid, 96 hour incubation; conditions: P. falciparum luciferase reporter growth; series mostly up to 28.7 µM; activity change, negative = inhibition: at the top concentration
Outline: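 Parasite growth measured via integrated firefly luciferase reporter in P. falciparum. Infected erythrocytes at 2% hematocrit, 0.05% parasitemia final were treated 96 hours at 37 C under 5% CO2, and luminescence was read.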
% is set by controls: 0 for no effect and ±100 for the full control effect; potency is the fitted concentration of half-maximal effect.

Row | SMILES | activity change, negative = inhibition | Potency
1 | CCOc1c([N+](=O)[O-])cc2c(C)c(C(=O)N3CCN(C)CC3)oc2c1OCC | inactive: -10.4% | –
2 | Cc1[nH]c(C)c(Cl)c(=O)c1Cl | – | active: 3.38 µM
3 | CN(O)C(=O)Nc1ccc([N+](=O)[O-])cc1 | – | inconclusive: 2.08 µM [inhibitor, full curve, poor fit]
4 | Cc1ccc(S(=O)(=O)N2CCC(C(=O)OC(C)C(=O)N(C)c3ccccc3)CC2)cc1C (stereo unspecified) | – | inconclusive: 16.5 µM [inhibitor, single point]
5 | Cc1onc(-c2ccccc2Cl)c1C(=O)NCc1nc(-c2ccccc2)no1 | – | inconclusive: 18.5 µM [inhibitor, single point]
6 | COc1ccc(/C=N/n2cnc3c([nH]c4ccc(F)cc43)c2=O)cc1CSc1ccccn1 | inactive: 24.6% | –
7 | Cc1oncc1C(=O)Nc1cccc2ccccc12 | – | inconclusive: 0.738 µM [inhibitor, full curve]
8 | O=C1CN(C(=O)c2ccccc2)C(c2ccc(F)cc2)c2cc(Br)ccc2N1 (stereo unspecified) | – | inconclusive: 16.5 µM [inhibitor, partial curve, poor fit]
9 | Cc1cc(NC(=O)CSc2sc3c(O)cc(=O)[nH]c3c2C#N)ccc1Br | inactive: -5.96% | –
10 | CCCCC/C=C/C1=CC(=O)C[C@H](c2ccc3c(c2)OCO3)C1 | – | inconclusive: 13.1 µM [inhibitor, single point]
11 | COCCCN1C(=O)/C(=C\c2cccs2)C(C(=O)OC)=C1C | inactive: 22.6% | –
12 | COc1ccc(C(=O)NCCc2c[nH]c3ccccc23)cc1 | – | inconclusive: 4.65 µM [inhibitor, partial curve]
13 | CCOC(=O)N1CCC(n2c(SCC(=O)c3ccccc3)nc3ccsc3c2=O)CC1 | – | inconclusive: 0.0029 µM [inhibitor, full curve, poor fit]
14 | CC(=O)Nc1ccc(S(=O)(=O)N(C)CC(=O)Nc2ccccc2N2CCOCC2)cc1 | inactive: 25.1% | –
15 | CC(C)Oc1ccc(CCC(=O)N/N=C/c2ccc3c(c2)OCO3)cc1 | inactive: 0% | –
16 | CCOc1cc(NC(=O)c2ccccc2OC)c(OCC)cc1NC(=O)c1ccccc1 | – | inconclusive: 10.4 µM [inhibitor, partial curve]
17 | NS(=O)(=O)c1ccc(CNS(=O)(=O)c2ccc3ccccc3c2)cc1 | – | inconclusive: 18.5 µM [inhibitor, partial curve, poor fit]
18 | CCOc1ccc(-c2nn[nH]n2)cc1OCC | – | inconclusive: 16.5 µM [inhibitor, partial curve, poor fit]
19 | COc1ccc(CCNC(=O)C(C)n2nc(C)n3c(cc4occc43)c2=O)cc1OC (stereo unspecified) | – | active: 13.1 µM
20 | CCOc1cccc(OCCn2cnc3ccccc3c2=O)c1 | – | active: 10.4 µM
21 | Cc1cc(C)n(-c2nc3c(c(=O)[nH]c(=O)n3C)n2CC(O)COc2ccccc2C)n1 (stereo unspecified) | – | inconclusive: 0.117 µM [inhibitor, full curve, poor fit]
22 | CNC(=O)NC(=O)CSc1nc2cc(C(=O)OC)ccc2c(=O)n1-c1ccccc1 | – | inconclusive: 18.5 µM [inhibitor, single point]

Row | SMILES | activity change, negative = inhibition | Potency
23 | Cc1nc2cc(Nc3ccncc3)ccc2s1 | – | inconclusive: 16.5 µM [inhibitor, single point]
24 | CCCC(=O)c1c(NC)cc(C)oc1=O | – | inconclusive: 8.28 µM [inhibitor, partial curve, poor fit]
25 | COc1ccc(N(CC(=O)Nc2cccc(SC)c2)S(C)(=O)=O)cc1 | – | inconclusive: 18.5 µM [inhibitor, single point]
26 | O=C(CSc1nnc2scc(-c3ccccc3)n12)c1ccc2c(c1)OCCO2 | – | active: 2.08 µM
27 | COc1ccc(OC)c(/C=C/C(=O)N2CCN(S(=O)(=O)c3ccc(C)cc3C)CC2)c1 | – | active: 13.1 µM
28 | CCOc1ccc(C2c3[nH]c4ccccc4c3C[C@H]3C(=O)N(C4CCN(Cc5ccccc5)CC4)CC(=O)N23)cc1OC (stereo partly specified) | – | inconclusive: 0.37 µM [inhibitor, full curve, poor fit]
29 | CCCc1cc(=O)[nH]c(SCC(=O)N2CCN(S(=O)(=O)c3ccccc3)CC2)n1 | – | inconclusive: 18.5 µM [inhibitor, single point]
30 | CC(OC(=O)c1ccc(NC(=O)CC#N)cc1)C(=O)NC(=O)NC1CCCCC1 (stereo unspecified) | – | inconclusive: 11.7 µM [inhibitor, single point]
31 | Cc1ccccc1N1CCN(CC(=O)NCc2ccc(Cl)cc2)CC1 | – | inconclusive: 18.5 µM [inhibitor, single point]
32 | Cc1ccc(NC(=O)Cn2cc(C(F)(F)F)cc(Cl)c2=O)cc1S(=O)(=O)N1CCCCC1 | – | inconclusive: 18.5 µM [inhibitor, single point]
33 | CCN(C(=O)COC(=O)CC1CCCCC1)c1c(N)n(Cc2ccccc2)c(=O)[nH]c1=O | – | inconclusive: 18.5 µM [inhibitor, single point]
34 | COc1cccc2sc(N(CCCN(C)C)C(=O)c3ccc(S(=O)(=O)N4CCCc5ccccc54)cc3)nc12 | – | inconclusive: 13.1 µM [inhibitor, partial curve, poor fit]
35 | Cc1nn(Cc2ccccc2)c(C)c1NC(=O)c1cc(-c2ccc3c(c2)OCO3)on1 | inactive: 4.34% | –
36 | COC(=O)c1ccccc1NC(=O)CSc1nnc(-c2cccnc2)n1C | – | inconclusive: 18.5 µM [inhibitor, single point]
37 | O=C(CSc1nc2ccccc2[nH]1)c1ccc2c(c1)OCO2 | – | inconclusive: 18.5 µM [inhibitor, single point]
38 | O=c1[nH]cnc2onc(-c3ccc(F)cc3)c12 | – | inconclusive: 10.4 µM [inhibitor, single point]
39 | CCCCOc1ccc(C2NC(=O)NC(C)=C2C(C)=O)cc1OCC (stereo unspecified) | inactive: -13% [at 5.75 µM] | –
40 | O=C(c1ccco1)N1CCN(C(=O)c2cc3c(=O)oc4ccccc4c3s2)CC1 | – | inconclusive: 0.0033 µM [inhibitor, full curve, poor fit]
41 | COc1ccc(NS(=O)(=O)c2cccc(C(=O)N(C)Cc3ccc(SC)cc3)c2)cc1 | – | inconclusive: 16.5 µM [inhibitor, single point]
42 | COc1cccc(CN2CCN(C3CCN(c4cccc(C)c4C)CC3)CC2CCO)c1 (stereo unspecified) | inactive: 19% | –
43 | Cn1ncc(Cl)c1C(=O)N1CCC2(CC1)OCCO2 | – | inconclusive: 2.33 µM [inhibitor, partial curve, poor fit]
44 | COc1ccc([N+](=O)[O-])cc1NC(=O)C1C2C=CC(C2)C1C(=O)O (stereo unspecified) | inactive: -12% | –

Single entries from the results shown.
Potency with `COc1ccc(NS(=O)(=O)c2cccc(C(=O)N(C)Cc3ccc(SC)cc3)c2)cc1` is entered as inconclusive: 16.5 µM [inhibitor, single point]
Potency with `CC(OC(=O)c1ccc(NC(=O)CC#N)cc1)C(=O)NC(=O)NC1CCCCC1` (stereo unspecified) is entered as inconclusive: 11.7 µM [inhibitor, single point]
Potency with `COc1cccc2sc(N(CCCN(C)C)C(=O)c3ccc(S(=O)(=O)N4CCCc5ccccc54)cc3)nc12` is entered as inconclusive: 13.1 µM [inhibitor, partial curve, poor fit]
Potency with `O=c1[nH]cnc2onc(-c3ccc(F)cc3)c12` is entered as inconclusive: 10.4 µM [inhibitor, single point]
Potency with `Cc1ccc(NC(=O)Cn2cc(C(F)(F)F)cc(Cl)c2=O)cc1S(=O)(=O)N1CCCCC1` is entered as inconclusive: 18.5 µM [inhibitor, single point]
Potency with `CCCc1cc(=O)[nH]c(SCC(=O)N2CCN(S(=O)(=O)c3ccccc3)CC2)n1` is entered as inconclusive: 18.5 µM [inhibitor, single point]

Following part

Row | SMILES | activity change, negative = inhibition | Potency
45 | Cc1ccc2c(c1)N(CC(=O)N1CCCc3ccccc31)C(=O)CO2 | – | inconclusive: 4.15 µM [inhibitor, partial curve]
46 | O=C(Nc1ccc(-c2nc3ncccc3o2)cc1)c1ccc([N+](=O)[O-])o1 | inactive: -1.69% | –
47 | CCCCn1c(N)c(N(Cc2ccccc2OC)C(=O)CN2C(=O)NC(C)(c3ccccc3)C2=O)c(=O)[nH]c1=O (stereo unspecified) | inactive: -7.1% | –
48 | COc1cc(/C=N/Nc2nc3ccccc3[nH]c2=O)ccc1O | – | inconclusive: 8.28 µM [inhibitor, partial curve, poor fit]
49 | CC(C)(C)c1ccc(-n2ncc3c2CCCC3NC(=O)c2csnn2)cc1 (stereo unspecified) | inactive: 12.7% | –
50 | CCN(CC)CCN(Cc1cc2ccc(C)cc2[nH]c1=O)C(=S)Nc1ccccc1C(=O)OC | inactive: 47.4% | –
51 | COc1ccc(CN2CCC(n3nccc3NC(=O)C3CCCC3)CC2)c(OC)c1 | inactive: 4.91% | –
52 | Cc1ccc(NS(=O)(=O)c2ccc(NC(=O)c3cccs3)cc2)c(C)c1 | – | inconclusive: 18.5 µM [inhibitor, single point]
53 | O=C(COC(=O)c1ccccc1NCCO)Nc1cccc(S(=O)(=O)NC2=NCCCCC2)c1 | – | inconclusive: 18.5 µM [inhibitor, single point]
54 | CC(C)CCNC(=O)C(c1ccncc1)N(C(=O)Cn1nnc(-c2ccc(F)cc2)n1)c1ccccc1F (stereo unspecified) | – | active: 6.57 µM
55 | CCN(CC(=O)Nc1ccc(OC)cc1)C(=O)COc1cccc2c1OC(C)(C)C2 | – | inconclusive: 8.28 µM [inhibitor, partial curve]
56 | Cc1cc(NC(=O)CCC(=O)N(Cc2ccccc2)C2(C(=O)NC3CCCCC3)CCCC2)no1 | – | inconclusive: 20.8 µM [inhibitor, partial curve, poor fit]
57 | Cc1c(NS(=O)(=O)c2ccc(NCCN3CCOCC3)c([N+](=O)[O-])c2)c(=O)n(-c2ccccc2)n1C | inactive: -2.09% | –
58 | C1CC(CN2CCOCC2)CN(c2nc3nonc3nc2N2CCSCC2)C1 (stereo unspecified) | – | inconclusive: 10.4 µM [inhibitor, single point]
59 | COc1ccc(-c2cnnc(N/N=C/c3c(C)nn(-c4ccccc4)c3Cl)n2)cc1 | – | inconclusive: 18.5 µM [inhibitor, single point]
60 | CCOC(=O)N1CCN(C(=O)CN(c2cc(Cl)ccc2OC)S(=O)(=O)c2ccccc2)CC1 | – | inconclusive: 11.7 µM [inhibitor, single point]
61 | O=C(Nc1cccc(S(=O)(=O)N2CCOCC2)c1)C1CCN(S(=O)(=O)c2ccccc2)CC1 | – | inconclusive: 10.4 µM [inhibitor, partial curve, poor fit]
62 | O=C(O)Cc1c(C(=O)O)[nH]c2ccc(C(=O)O)cc12 | inactive: 15.7% | –
63 | CCCOc1ccc(/C=C/C(=O)Nc2ccc([N+](=O)[O-])cc2)cc1 | – | inconclusive: 0.0522 µM [inhibitor, full curve]
64 | CC(C)CCCN1C(N(C)C)=NC[C@@H]1Cc1ccccc1 | – | inconclusive: 18.5 µM [inhibitor, single point]
65 | N#CC1=C2SCN(Cc3ccco3)CN2C(=O)CC1c1c(F)cccc1Cl (stereo unspecified) | inactive: 77.7% | –
66 | O=C(N/C=N/O)C(c1ccccc1)c1ncc(C(F)(F)F)cc1Cl (stereo unspecified) | inactive: -1.94% | –
